One compound from paper PMC12801355, “Peptide Amphiphiles Hitchhike on Endogenous Biomolecules for Enhanced Cancer Imaging and Therapy” (Advanced Materials (Deerfield Beach, Fla.), 2025) can be followed below.

The data set concerns human plasma proteins. In words: Mass spectrometry of proteins pulled down with biotinylated SA‐E (SA‐Eb) from human plasma. It is filed as binding. The procedure: Samples were prepared for mass spectrometry analysis via a pull‐down of a biotinylated version of the SA‐E probe (SA‐Eb, 100 µM) incubated with 50% pooled human plasma at 37 °C for 2 h. Before incubation with the SA‐Eb‐plasma mixture, magnetic streptavidin‐coated beads (Dynabeads MyOne Streptavidin T1, Invitrogen, 65601) were washed with PBS (10 mM, pH 7.4) then blocked with 1% casein equal to the total initial volume of beads for 15 min at room temperature. After blocking, beads were washed again with PBS. Beads were then combined with SA‐Eb‐plasma solution, 25 µL beads to 200 µL mixture. This mixture was then incubated at room temperature for 30 min. After incubation, the remaining solution was removed, and the beads were washed five times with PBS. Bound SA‐Eb was eluted from beads in 30 µL 0.5% Triton X‐100 solution. Magnetic beads were then removed, and the elution was collected for analysis. For plasma control, the incubation with SA‐Eb step was skipped, and 50% plasma in PBS was incubated with beads and washed and eluted using the same method as the SA‐Eb‐plasma solution. The elution solutions were then analyzed by the Proteomics Shared Resource facility at Oregon Health & Science University (See Supporting Information for details).
Sample Preparation. Eluted plasma samples were dried down and stored at -80°C. Samples were thawed at room temperature for 10 min, and 75 µL of SDS protein extraction buffer (5% SDS, 50 mM […]; TEAB) was added to each sample. Samples were shaken in a Thermo mixer for 10 minutes at room temperature and centrifuged at 10,000 g for 5 min. Each sample was transferred from a 0.5 mL tube to a 1.5 mL LoBind centrifuge tube. Samples were reduced by adding 3.4 µL of 0.5 M dithiothreitol and incubated at 95 °C for 10 min. Samples were alkylated by the addition of 6.8 µL of 0.5 M iodoacetamide and were incubated at room temperature for 30 min in the dark. Samples were then acidified by the addition of 8.52 µL of 12% phosphoric acid, and 562 µL of SDS protein binding buffer (90% methanol, 100 mM TEAB, pH 7.51). Samples were transferred 165 µL at a time to S-trap micro columns (Protifi, Farmingdale, NY) and inserted into 1.5 mL of polypropylene tubes. Samples were centrifuged at 4,000 g for 3 min between each addition of the sample. S-trap columns were washed 6 times using 150 µL of 90% methanol containing 100 mM of TEAB followed by centrifugation at 4,000g for 3 min between each wash step. S-trap columns containing the bound sample proteins were transferred to 1.5 mL LoBind centrifuge tubes and 40 µL of 80 ng/µL sequencing grade modified trypsin (Pierce TM Trypsin Protease MS-Grade, XG348166) in 50 mM TEAB was added. S-trap columns were loosely capped, and digestion was performed at 37°C overnight in a humidified chamber.
After completion of digestion, peptides were eluted by sequential addition of 40 µL of TEAB, 40 µL of 0.2% aqueous formic acid, and 40 µl of 50% acetonitrile, 0.2% formic acid, with centrifugation at 4,000 g for 4 min between each addition of elution buffer. The elution fractions were combined and then dried by vacuum centrifugation. Samples were reconstituted by adding 20 µL of 5% formic acid, shaking at 37 °C, and spinning at 15,000 g for 5 min. The supernatant of each sample was transferred to an auto-sample vial.
Data analysis. Mass spectrometry data from all samples were processed using COMET/PAWS against Uniprot_Human_database. Comet (v. 2016.01, rev. 3)^8 was used to search MS2 Spectra against a January 2023 version of canonical FASTA protein database containing human uniprot sequences, and concatenated sequence-reversed entries to estimate error thresholds and 179 common contaminant sequences and their reversed forms. The database processing was performed using python scripts available at https://github.com/pwilmart/fasta_utilities.git and Comet results were processed using the PAW pipeline2 from https://github.com/pwilmart/PAW_pipeline.git.

Molecules are shown by their SMILES. Where a SMILES comes first, the peptide text is derived from it. The star is where a group is joined. Palmitoyl = CCCCCCCCCCCCCCCC(=O)*

On to `CCCCCCCCCCCCCCCC(=O)NCC(=O)NCC(=O)NCC(=O)N[C@@H](Cc1c[nH]cn1)C(=O)N[C@@H](C)C(=O)N[C@@H](C)C(=O)N[C@@H](CC(N)=O)C(=O)NCC(=O)N[C@@H](CCC(=O)O)C(=O)N[C@@H](CCC(=O)O)C(=O)N[C@@H](CS)C(=O)N[C@@H](CCC(=O)O)C(=O)O` [SA‐E] (Palmitoyl-GGGHAANGEECE-OH), for which, where the note is “replicate 1”, the “Percentage, Apolipoproteins” value is 25.0%; the “Percentage, Immunoglobulins” value was found to be 12.4%; the “Percentage, Other” value is on record as 28.6%; the “Total Counts, Apolipoproteins” value is listed as 891. Under “replicate 1”, the “Total Counts, Immunoglobulins” value amounted to 444 and the “Total Counts, Total” value was 3569. Also, where the note is “replicate 2”, the “Percentage, Apolipoproteins” value is recorded as 32.0%; the “Percentage, Immunoglobulins” value amounted to 14.8%; the “Percentage, Other” value is listed as 20.7%; the “Total Counts, Apolipoproteins” value came out at 909. Further, where the note is “replicate 2”, the “Total Counts, Immunoglobulins” value turned out to be 421 and the “Total Counts, Total” value is 2841.
